The text below walks through data of article PMC8064395.

Protein sequences, listed by entry. Tags and fused reporters are not part of them.
UniProt Q87RK1: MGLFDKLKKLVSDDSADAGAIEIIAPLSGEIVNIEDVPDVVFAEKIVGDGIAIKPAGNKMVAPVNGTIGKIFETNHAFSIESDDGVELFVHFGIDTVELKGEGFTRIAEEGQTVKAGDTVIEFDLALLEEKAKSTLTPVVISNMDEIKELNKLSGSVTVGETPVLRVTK
UniProt Q87L07: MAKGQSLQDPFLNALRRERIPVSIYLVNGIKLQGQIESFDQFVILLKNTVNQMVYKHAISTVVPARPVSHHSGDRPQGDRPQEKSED
UniProt Q87RR7: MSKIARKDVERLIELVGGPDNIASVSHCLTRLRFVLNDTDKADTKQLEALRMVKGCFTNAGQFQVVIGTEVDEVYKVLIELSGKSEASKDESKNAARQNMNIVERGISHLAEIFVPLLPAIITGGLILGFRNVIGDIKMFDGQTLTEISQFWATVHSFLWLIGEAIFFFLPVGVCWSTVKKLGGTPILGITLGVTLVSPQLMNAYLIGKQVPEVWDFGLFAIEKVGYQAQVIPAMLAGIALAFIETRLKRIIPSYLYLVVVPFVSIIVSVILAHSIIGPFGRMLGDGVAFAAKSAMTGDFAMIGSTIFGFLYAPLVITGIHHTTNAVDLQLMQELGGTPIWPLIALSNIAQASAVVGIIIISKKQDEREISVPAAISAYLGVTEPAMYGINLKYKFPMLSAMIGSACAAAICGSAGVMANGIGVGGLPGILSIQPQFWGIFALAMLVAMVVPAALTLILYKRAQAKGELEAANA

For this test, the target named is T1, hexahistidine-tagged VP0610 (Vibrio parahaemolyticus RIMD2210633) (UniProt Q87S14).
T1 sequence: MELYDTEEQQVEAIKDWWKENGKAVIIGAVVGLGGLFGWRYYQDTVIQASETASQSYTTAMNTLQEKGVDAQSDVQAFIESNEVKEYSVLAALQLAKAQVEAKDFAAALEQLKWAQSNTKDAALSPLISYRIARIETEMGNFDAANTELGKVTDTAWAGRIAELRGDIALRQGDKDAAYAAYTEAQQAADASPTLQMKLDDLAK
The experiment in a line: affinity purification with mass spectrometry; His-VP0610 immobilized on Ni Sepharose; V. parahaemolyticus WT protein loaded; eluted with different elution buffer concentrations; SDS-PAGE, silver staining; bands identified by mass spectrometry; binding buffer 20 mM sodium phosphate, 500 mM sodium chloride, 30 mM imidazole, pH 7.4; only the target purified.

No constants are given. Whether binding was seen depends on the method and setting. In cells and extracts the contact can be indirect. A yes stands for co-enrichment or nearness to the bait. Other partners may have been found. Sequences can lack the tags named with a protein.

Consider “VP0793, sugar PTS system EIIA component (from UniProt Q87RK1 1-169)”, for which the binding result was “binds”.

Regarding “RNA binding protein (Hfq) (from UniProt Q87L07 1-87)”, the binding entry is given as “binds”.

Take adenylate cyclase (CyaA): the binding entry is recorded as “binds”.

With “VP0710, sugar PTS system EIIA component (from UniProt Q87RR7 1-474)”, the binding entry is reported as “binds”.
